# Assay results published in article PMC5996148.
# Chains of the proteins cited; added tags and fusions are not shown. Lines headed by an entry give the natural chain unless they say otherwise; changes in a name come on top.
# UniProt Q15059: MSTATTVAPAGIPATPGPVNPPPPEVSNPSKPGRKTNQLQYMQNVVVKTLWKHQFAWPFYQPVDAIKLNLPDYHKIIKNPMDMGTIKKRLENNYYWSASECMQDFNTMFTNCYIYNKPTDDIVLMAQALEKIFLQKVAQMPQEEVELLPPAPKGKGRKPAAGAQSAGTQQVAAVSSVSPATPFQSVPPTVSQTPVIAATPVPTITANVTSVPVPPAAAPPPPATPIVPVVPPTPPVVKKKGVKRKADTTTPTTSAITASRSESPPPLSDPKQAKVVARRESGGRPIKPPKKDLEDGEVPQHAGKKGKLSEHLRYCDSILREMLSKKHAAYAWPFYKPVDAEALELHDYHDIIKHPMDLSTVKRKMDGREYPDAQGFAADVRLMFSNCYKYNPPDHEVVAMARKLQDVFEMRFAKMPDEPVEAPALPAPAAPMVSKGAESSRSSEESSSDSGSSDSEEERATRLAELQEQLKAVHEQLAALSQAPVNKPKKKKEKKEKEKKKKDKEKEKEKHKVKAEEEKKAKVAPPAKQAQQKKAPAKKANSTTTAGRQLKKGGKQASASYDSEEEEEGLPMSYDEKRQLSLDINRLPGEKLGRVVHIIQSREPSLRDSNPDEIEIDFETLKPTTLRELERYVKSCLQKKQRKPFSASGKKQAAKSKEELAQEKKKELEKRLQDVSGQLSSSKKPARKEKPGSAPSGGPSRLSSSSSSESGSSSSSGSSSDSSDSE
# Values joined by “and” are separate entries in the source; they are usually repeats but may differ in a detail not shown here. Identical values can stand only once. This is one part of the list. For some of these results: The source does not settle which construct or isoform was used.
# Tests used:
# Assay in all cases: protein microarray (ProtoArray v5.0), streptavidin-Alexa Fluor 647
# Conditions in all cases: 3'-biotin; 20 mM Tris (pH 7.5), 5 mM MgCl2, 100 mM KCl, 0.1% Tween-20, A/T-rich and random oligonucleotide blockers; temperature not stated; high values mean tight binding
# BIN1 = target: T1, BIN1 (UniProt O00499)
# T1 sequence: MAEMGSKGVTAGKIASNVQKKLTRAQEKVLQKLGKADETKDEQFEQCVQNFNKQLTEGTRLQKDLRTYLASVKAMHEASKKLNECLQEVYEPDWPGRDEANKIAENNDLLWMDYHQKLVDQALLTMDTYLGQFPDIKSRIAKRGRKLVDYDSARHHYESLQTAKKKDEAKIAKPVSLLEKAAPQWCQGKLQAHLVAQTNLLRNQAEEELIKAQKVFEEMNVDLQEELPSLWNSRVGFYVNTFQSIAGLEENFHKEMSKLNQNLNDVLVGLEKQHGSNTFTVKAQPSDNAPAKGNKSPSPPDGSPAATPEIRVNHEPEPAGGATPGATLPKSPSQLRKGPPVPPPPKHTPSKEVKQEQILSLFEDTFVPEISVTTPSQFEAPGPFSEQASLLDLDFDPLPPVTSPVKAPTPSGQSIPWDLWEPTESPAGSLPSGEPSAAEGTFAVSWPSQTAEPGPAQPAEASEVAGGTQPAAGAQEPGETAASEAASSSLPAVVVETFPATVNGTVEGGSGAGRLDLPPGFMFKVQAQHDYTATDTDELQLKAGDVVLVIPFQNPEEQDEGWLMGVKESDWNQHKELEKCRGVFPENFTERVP
# BIRC5 (human) = test system: BIRC5 (human)
# BIRC7 (human) = test system: BIRC7 (human)
# BMF (human) = test system: BMF (human)
# BRD3 = BRD3 (UniProt Q15059)
# BRD9 (human) = test system: BRD9 (human)
# BSG = target: T2, BSG (UniProt P35613)
# T2 sequence: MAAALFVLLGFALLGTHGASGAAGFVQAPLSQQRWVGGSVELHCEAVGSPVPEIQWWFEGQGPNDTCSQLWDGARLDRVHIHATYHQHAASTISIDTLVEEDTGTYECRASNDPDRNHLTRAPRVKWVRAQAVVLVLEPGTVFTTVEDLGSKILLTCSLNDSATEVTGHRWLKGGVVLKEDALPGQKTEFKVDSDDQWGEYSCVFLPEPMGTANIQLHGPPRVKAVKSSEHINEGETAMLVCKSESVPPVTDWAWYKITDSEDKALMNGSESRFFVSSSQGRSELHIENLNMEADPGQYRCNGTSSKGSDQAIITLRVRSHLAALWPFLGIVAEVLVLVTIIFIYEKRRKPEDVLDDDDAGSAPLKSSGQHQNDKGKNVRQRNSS
# BTG2 (human) = test system: BTG2 (human)
# [1] = test system: Baculoviral IAP repeat-containing protein 7 (human)
# [2] = test system: Band 4.1-like protein 4A (human)
sequence,measurement,setting,value
GGTGACAGGGGTATGGGGAGGGG [G4-2 biotinylated (Ct1)],binding signal,BIN1,-0.393 z-score and -0.376 z-score
same,binding signal,BIRC5 (human),-0.398 z-score
same,binding signal,BIRC7 (human),-0.368 z-score
same,binding signal,BMF (human),-0.392 z-score and -0.395 z-score
same,binding signal,BRD3,6.79 z-score
same,binding signal,BRD9 (human),-0.393 z-score
same,binding signal,BSG,-0.377 z-score
same,binding signal,BTG2 (human),-0.376 z-score
same,binding signal,[1],-0.398 z-score
same,binding signal,[2],4.23 z-score
